# Values quoted from earlier work, collected in patent US9958450B2, “L-glucose derivatives having fluorescent chromophore” (HIROSAKI UNIVERSITY, priority 2008, dated 2018).
# At least one read-out could not be matched to a standard name with certainty.
# Molecular target: T1, GLUT2 (Mus musculus, UniProt P14246)
# T1 construct: administered 2-NBDG to insulin-secreting cells which are representative cells expressing GLUT2
# T1 sequence (P14246 1-523): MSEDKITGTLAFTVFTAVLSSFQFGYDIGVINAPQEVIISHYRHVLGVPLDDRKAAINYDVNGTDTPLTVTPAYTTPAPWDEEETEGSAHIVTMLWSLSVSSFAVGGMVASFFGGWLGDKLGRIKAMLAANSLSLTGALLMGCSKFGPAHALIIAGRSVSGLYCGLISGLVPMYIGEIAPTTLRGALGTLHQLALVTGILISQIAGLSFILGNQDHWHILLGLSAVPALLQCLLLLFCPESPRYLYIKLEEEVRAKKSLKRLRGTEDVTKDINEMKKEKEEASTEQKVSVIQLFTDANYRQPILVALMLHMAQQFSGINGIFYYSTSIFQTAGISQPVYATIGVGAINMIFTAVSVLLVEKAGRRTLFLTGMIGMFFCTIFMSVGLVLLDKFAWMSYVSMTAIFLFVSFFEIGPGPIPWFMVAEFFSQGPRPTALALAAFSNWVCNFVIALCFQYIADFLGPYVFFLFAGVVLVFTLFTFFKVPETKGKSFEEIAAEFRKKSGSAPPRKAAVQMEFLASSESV
# Details: insulin-secreting cells expressing GLUT2, from changes in the fluorescence intensity; cited from earlier work
structure (smiles),measurement,value
"O=[N+]([O-])c1ccc(NC2C(O)OC(CO)[C@@H](O)C2O)c2nonc12 (stereo partly drawn) [2-NBDG, 2-[N-(7-nitrobenz-2-oxa-1,3-diazol-4-yl)amino]-2-deoxy-D-glucose]",Km value of incorporation into cells,equivalent to the value reported for D-glucose
